Measurements published in the supplement of paper PMC11732987, “Enantioselective OTUD7B fragment discovery through chemoproteomics screening and high-throughput optimisation” (Communications Chemistry, 2025).
The list shows a part of the results. The data scatter; read single values as rough.

Chains of the proteins cited; added tags and fusions are not shown. Lines headed by an entry give the natural chain unless they say otherwise; changes in a name come on top. Residues count along the entry.
UniProt Q9NPH2: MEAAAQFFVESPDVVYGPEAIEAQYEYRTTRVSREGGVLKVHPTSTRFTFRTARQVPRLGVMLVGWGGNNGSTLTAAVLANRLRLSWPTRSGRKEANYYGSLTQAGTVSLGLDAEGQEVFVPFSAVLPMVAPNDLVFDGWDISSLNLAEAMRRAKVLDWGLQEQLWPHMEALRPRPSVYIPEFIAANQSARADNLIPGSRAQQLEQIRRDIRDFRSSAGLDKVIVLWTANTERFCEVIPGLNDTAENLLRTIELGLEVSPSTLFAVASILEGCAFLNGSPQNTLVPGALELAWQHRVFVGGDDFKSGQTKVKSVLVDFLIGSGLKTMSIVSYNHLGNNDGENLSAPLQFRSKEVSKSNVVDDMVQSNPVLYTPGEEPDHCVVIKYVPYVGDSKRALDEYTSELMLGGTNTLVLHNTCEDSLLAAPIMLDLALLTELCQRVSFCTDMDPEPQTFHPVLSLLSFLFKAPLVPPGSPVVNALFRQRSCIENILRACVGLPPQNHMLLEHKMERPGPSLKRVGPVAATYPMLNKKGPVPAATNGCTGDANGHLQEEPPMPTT
UniProt Q9Y4C1: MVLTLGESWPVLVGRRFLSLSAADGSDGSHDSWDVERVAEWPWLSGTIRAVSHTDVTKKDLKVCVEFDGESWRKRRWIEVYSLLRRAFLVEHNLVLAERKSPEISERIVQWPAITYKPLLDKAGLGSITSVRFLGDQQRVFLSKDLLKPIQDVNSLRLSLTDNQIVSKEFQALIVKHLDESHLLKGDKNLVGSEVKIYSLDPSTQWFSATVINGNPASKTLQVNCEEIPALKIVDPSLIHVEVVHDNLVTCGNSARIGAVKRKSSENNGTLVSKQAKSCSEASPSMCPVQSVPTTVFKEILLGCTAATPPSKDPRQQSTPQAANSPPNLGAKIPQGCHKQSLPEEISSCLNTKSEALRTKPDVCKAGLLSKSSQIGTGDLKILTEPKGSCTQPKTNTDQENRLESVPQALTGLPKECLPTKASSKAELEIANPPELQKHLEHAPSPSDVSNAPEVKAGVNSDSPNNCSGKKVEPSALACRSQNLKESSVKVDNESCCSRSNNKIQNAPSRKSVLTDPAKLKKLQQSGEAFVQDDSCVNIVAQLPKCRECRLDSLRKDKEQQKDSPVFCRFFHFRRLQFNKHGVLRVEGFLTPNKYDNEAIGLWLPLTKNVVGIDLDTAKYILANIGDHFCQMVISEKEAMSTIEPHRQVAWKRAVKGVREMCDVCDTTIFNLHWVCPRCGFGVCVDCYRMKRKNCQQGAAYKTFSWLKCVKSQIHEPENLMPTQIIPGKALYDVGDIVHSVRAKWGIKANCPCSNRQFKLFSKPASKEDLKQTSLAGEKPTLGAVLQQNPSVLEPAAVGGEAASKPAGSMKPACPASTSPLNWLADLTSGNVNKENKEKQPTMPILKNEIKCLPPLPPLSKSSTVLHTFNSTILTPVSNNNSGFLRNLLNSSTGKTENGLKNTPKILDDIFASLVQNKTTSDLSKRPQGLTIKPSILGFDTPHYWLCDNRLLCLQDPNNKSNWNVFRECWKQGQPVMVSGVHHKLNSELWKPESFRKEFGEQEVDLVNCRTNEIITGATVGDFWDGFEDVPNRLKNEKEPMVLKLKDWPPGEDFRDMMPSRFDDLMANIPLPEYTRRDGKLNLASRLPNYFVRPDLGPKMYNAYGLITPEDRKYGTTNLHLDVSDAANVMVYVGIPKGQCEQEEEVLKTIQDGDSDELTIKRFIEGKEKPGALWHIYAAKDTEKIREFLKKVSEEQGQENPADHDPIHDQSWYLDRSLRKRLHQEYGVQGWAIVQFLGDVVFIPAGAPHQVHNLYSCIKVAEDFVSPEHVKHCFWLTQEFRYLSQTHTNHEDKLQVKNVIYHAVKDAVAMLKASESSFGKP
UniProt Q15058, 1406-1426: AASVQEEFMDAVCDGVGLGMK
UniProt Q9H910: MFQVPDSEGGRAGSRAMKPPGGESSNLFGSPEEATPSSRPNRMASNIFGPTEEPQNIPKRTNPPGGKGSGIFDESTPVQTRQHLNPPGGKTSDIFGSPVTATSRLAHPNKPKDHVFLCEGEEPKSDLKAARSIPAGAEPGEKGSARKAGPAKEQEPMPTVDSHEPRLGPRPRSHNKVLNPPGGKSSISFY
UniProt Q9P0J7: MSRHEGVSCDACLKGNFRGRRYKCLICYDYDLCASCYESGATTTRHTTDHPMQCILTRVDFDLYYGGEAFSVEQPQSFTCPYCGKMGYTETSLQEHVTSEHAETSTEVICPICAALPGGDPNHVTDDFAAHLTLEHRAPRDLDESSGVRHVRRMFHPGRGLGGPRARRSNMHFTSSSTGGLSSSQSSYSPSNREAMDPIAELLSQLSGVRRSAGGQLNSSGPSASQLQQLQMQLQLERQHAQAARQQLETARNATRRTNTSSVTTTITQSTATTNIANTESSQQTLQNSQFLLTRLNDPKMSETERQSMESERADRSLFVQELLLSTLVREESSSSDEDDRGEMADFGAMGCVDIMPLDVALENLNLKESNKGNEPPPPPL
UniProt O76095: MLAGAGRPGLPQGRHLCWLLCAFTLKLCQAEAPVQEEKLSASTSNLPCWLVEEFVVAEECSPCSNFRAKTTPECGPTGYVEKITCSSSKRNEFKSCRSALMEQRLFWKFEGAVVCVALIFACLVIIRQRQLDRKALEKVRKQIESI
UniProt Q12840, 382-408: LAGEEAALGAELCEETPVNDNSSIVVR
UniProt Q99661: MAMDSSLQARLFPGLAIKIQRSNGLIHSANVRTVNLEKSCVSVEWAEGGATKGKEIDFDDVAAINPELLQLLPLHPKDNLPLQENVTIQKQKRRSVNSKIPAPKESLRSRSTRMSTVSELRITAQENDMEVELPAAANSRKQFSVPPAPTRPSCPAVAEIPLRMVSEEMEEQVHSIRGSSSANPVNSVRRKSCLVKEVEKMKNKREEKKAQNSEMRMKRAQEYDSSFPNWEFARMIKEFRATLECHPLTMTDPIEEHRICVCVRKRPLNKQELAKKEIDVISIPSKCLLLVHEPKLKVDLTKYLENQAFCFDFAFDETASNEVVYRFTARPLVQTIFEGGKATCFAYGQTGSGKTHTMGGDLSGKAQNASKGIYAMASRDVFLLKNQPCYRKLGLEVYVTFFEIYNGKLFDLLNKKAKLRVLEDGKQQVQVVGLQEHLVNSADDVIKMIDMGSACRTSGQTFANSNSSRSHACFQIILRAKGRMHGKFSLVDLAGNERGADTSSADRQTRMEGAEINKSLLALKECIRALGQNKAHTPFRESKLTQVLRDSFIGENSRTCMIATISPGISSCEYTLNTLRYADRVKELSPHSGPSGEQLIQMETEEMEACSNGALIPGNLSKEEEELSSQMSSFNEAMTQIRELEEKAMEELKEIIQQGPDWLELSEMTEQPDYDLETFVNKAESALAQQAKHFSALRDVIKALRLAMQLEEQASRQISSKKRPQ
UniProt P52732: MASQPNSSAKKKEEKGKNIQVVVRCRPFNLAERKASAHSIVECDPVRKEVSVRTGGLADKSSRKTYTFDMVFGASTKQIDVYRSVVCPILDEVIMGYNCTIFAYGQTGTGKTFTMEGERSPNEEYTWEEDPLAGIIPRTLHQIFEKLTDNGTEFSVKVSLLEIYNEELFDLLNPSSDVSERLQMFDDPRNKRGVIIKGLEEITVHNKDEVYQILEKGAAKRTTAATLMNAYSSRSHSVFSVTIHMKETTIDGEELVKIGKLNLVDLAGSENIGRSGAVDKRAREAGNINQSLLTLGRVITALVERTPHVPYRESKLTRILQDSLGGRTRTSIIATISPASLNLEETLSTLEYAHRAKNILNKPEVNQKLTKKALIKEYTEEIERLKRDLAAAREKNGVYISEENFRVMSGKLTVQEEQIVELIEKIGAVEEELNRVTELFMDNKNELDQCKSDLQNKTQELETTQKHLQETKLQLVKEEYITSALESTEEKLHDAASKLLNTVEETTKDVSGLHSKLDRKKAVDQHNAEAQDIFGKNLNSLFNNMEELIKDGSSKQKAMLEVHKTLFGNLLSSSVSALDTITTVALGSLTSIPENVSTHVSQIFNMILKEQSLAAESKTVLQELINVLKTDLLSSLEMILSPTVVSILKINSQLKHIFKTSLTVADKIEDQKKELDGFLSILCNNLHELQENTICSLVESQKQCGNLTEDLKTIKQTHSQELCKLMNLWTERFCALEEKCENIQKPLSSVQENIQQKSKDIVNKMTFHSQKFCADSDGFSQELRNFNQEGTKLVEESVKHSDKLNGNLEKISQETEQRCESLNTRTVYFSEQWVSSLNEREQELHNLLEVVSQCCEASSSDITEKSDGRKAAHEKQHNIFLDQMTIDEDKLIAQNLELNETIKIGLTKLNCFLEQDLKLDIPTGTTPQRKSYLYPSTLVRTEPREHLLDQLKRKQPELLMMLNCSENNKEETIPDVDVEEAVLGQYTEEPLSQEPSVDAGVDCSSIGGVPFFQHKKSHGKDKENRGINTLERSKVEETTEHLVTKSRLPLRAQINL
UniProt P23458: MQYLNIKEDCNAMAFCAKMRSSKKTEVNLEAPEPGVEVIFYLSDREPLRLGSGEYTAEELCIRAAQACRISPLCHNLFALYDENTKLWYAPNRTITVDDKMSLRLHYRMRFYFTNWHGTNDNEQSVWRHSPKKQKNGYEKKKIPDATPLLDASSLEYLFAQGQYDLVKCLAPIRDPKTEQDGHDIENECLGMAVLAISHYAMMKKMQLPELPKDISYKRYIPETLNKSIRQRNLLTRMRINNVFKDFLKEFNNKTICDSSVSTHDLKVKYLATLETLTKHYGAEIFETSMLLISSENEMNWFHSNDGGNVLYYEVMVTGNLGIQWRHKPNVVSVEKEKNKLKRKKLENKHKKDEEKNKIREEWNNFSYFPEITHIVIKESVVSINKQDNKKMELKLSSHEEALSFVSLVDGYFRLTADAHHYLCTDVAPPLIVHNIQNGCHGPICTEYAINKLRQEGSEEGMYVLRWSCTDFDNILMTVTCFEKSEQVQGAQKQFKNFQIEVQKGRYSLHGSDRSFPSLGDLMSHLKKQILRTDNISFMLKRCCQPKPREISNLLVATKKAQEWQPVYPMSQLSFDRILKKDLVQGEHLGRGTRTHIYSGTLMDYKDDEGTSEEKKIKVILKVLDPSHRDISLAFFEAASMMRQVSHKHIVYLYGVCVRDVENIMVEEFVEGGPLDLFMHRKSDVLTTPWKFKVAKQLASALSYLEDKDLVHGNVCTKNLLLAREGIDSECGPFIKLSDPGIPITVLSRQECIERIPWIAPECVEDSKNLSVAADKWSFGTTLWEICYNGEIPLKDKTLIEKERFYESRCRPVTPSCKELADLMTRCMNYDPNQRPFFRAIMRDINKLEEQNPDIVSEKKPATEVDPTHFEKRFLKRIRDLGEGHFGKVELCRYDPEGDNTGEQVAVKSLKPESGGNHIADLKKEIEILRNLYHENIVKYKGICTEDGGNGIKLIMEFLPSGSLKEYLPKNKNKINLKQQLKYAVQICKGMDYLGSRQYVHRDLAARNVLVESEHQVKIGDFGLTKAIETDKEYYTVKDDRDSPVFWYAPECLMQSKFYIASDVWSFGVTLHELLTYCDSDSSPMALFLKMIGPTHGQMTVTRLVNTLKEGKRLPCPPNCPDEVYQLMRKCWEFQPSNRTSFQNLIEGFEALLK
UniProt Q63ZY3: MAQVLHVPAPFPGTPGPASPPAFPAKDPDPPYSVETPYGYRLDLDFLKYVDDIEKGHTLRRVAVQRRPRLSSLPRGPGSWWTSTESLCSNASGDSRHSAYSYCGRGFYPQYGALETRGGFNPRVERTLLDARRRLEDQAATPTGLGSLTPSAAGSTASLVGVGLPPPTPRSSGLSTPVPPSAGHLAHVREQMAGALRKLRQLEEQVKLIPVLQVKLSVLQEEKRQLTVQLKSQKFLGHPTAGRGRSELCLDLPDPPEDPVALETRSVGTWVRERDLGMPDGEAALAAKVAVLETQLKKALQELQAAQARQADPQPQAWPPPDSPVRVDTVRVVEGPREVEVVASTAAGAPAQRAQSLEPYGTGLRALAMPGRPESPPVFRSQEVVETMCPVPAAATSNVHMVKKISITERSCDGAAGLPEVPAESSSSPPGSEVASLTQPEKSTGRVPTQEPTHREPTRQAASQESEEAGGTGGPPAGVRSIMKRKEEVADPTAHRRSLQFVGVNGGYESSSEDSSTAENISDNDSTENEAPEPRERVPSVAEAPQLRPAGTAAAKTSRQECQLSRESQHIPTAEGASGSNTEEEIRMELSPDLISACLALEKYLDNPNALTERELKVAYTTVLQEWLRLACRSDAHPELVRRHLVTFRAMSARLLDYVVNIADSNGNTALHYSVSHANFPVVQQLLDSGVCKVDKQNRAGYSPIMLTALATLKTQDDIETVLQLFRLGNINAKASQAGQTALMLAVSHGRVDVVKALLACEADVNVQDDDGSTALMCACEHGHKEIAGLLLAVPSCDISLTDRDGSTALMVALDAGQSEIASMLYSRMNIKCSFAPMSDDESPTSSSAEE

Legend:
[1] = compound: ClCC(=O)N[C@@H]1CCCc2ccccc12; experiment: log2 mean competition ratio of IA-DTB cysteine labelling (DMSO/compound) (log2 ratio); higher = stronger cysteine engagement by compound; settings: treatment time: 4 h, cell line lysate: HEK293T
Procedure: (§1)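 IA-DTB competitive cysteine chemoproteomics in HEK293T RIPA lysate. Lysates were treated with compound 29 or 30 at 50 or 200 µM for 4 h, then IA-DTB (500 µM, 1 h), trypsin-digested, NeutrAvidin-enriched and analysed by diaPASEF. Competition ratio = intensity DMSO / intensity compound (n=4 treated, n=64 DMSO); binding: mean log2 CR ≥ 1 and p ≤ 0.05 plus QC filters. Target is the cysteine site.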

[2] = compound: ClCC(=O)N[C@H]1CCCc2ccccc12; experiment: as above; settings: treatment time: 4 h, cell line lysate: HEK293T
Procedure: as §1

| Target | log2 mean competition ratio ([1]; 50 µM) | log2 mean competition ratio ([1]; 200 µM) | log2 mean competition ratio ([2]; 50 µM) | log2 mean competition ratio ([2]; 200 µM) |
| --- | --- | --- | --- | --- |
| KHDC4 C280 (UniProt Q7Z7F0) | -0.167 | 0.0647 | -0.0796 | 0.182 |
| ISYNA1 C485 (UniProt Q9NPH2) | 0.127 | 0.36 | 0.591 | 0.532 |
| KDM3B C1392 (UniProt Q7LBC6) | 0.161 | -0.103 | 0.0861 | -0.228 |
| KIF20A C778 (UniProt O95235) | -0.393 | 0.41 | -0.503 | 0.12 |
| KDM3A C1009 (UniProt Q9Y4C1) | -0.298 | -0.00152 | -0.0259 | 0.304 |
| KDM3A C953 (UniProt Q9Y4C1) | -0.0411 | 0.217 | -0.0714 | 0.333 |
| KIF15 C1335 (UniProt Q9NS87) | -0.0335 | -0.15 | 0.128 | -0.272 |
| KIF14 C1418 (UniProt Q15058) | 0.0532 | -0.292 | -0.0799 | 0.0246 |
| KDM5C C629 (UniProt P41229) | 0.188 | 0.077 | 0.0751 | 0.129 |
| ITGA4 C861 (UniProt P13612) | 0.066 | 0.323 | 0.168 | 0.536 |
| KIAA1107 C1071 | 0.158 | -0.164 | 0.025 | -0.0485 |
| JPT2 C118 (UniProt Q9H910) | 0.308 | 0.0747 | 0.304 | 0.201 |
| JMJD1C C684 (UniProt Q15652) | 0.0716 | -0.128 | -0.245 | -0.0249 |
| ITCH C57 (UniProt Q96J02) | -0.0153 | 5.68e-05 | -0.126 | -0.0397 |
| KDM3A C337 (UniProt Q9Y4C1) | 0.226 | -0.092 | 0.574 | -0.14 |
| KDM8 C7 (UniProt Q8N371) | -0.243 | -0.056 | -0.647 | -0.0954 |
| KCMF1 C54 (UniProt Q9P0J7) | 0.00443 | 0.252 | -0.431 | -0.246 |
| KDM1A C600 (UniProt O60341) | -0.0526 | -0.401 | -0.0127 | -0.0872 |
| KAZN C348 (UniProt Q674X7) | 0.00031 | 0.101 | 0.107 | 0.129 |
| KIF13A C958 (UniProt Q9H1H9) | 0.432 | 0.0824 | 0.23 | 0.0626 |
| KIF4A C965 (UniProt O95239) | -0.378 | -0.254 | 0.413 | -0.0172 |
| KIF20B C813 (UniProt Q96Q89) | -0.183 | -0.199 | -0.277 | 0.0637 |

| Target | log2 mean competition ratio ([1]; 50 µM) | log2 mean competition ratio ([1]; 200 µM) | log2 mean competition ratio ([2]; 50 µM) | log2 mean competition ratio ([2]; 200 µM) |
| --- | --- | --- | --- | --- |
| KIAA1107 C311 | 0.19 | -0.182 | 0.211 | -0.145 |
| KDM3B C937 (UniProt Q7LBC6) | 0.00548 | 0.0798 | -0.127 | 0.148 |
| KDM1A C360 (UniProt O60341) | 0.36 | -0.105 | -0.166 | -0.309 |
| KIAA0100 C1055 (UniProt Q14667) | -0.19 | 0.262 | -0.216 | 0.226 |
| JTB C85 (UniProt O76095) | -0.0669 | 0.229 | -0.0833 | 0.131 |
| ITPR3 C215 (UniProt Q14573) | 0.0107 | -0.142 | 0.0535 | -0.105 |
| KIF5A C394 (UniProt Q12840) | -0.326 | -0.0673 | 0.344 | -0.236 |
| KIF21A C652 | -0.334 | -0.233 | -0.255 | -0.227 |
| IRS4 C1065 | -0.0198 | -0.224 | -0.123 | 0.157 |
| KIF1B C600 (UniProt O60333) | -0.271 | -0.157 | 0.132 | -0.0472 |
| JPH1 C402 (UniProt Q9HDC5) | -0.309 | 0.122 | -0.0695 | 0.28 |
| KIF2C C344 (UniProt Q99661) | 0.129 | -0.00861 | 0.0417 | 0.0851 |
| KIF20A C87 (UniProt O95235) | -0.256 | 0.136 | -0.132 | 0.354 |
| KIF11 C450 (UniProt P52732) | -0.302 | 0.134 | -0.644 | -0.0276 |
| JAK1 C257 (UniProt P23458) | -0.0286 | 0.053 | -0.394 | 0.0236 |
| KARS1 C434 (UniProt Q15046) | -0.307 | -0.48 | 0.338 | -0.128 |
| IRF2 C83 (UniProt P14316) | -0.0959 | 0.158 | -0.547 | 0.163 |
| IVNS1ABP C32 (UniProt Q9Y6Y0) | -0.0167 | -0.0254 | 0.185 | 0.0985 |
| KANK2 C562 (UniProt Q63ZY3) | -0.209 | 0.183 | -0.0803 | 0.243 |
| KIAA0100 C1979 (UniProt Q14667) | 0.175 | 0.0537 | -0.0776 | -0.0935 |
| KDM3A C225 (UniProt Q9Y4C1) | -0.226 | -0.181 | -0.396 | -0.0637 |
| KIF16B C863 (UniProt Q96L93) | -0.367 | 0.269 | -0.353 | 0.395 |

Some entries already given with just log2 mean competition ratio ([1]; 200 µM), log2 mean competition ratio ([2]; 200 µM) and log2 mean competition ratio ([2]; 50 µM).
Target	log2 mean competition ratio ([1]; 200 µM)	log2 mean competition ratio ([2]; 200 µM)	log2 mean competition ratio ([2]; 50 µM)
KIF5A C394 (UniProt Q12840)	-0.0673	-0.236	0.344
KIF21A C652	-0.233	-0.227	-0.255
IRS4 C1065	-0.224	0.157	-0.123
